Test results reported in patent US10906864B2, “Nitroalkene non steroidal anti-inflammatory drugs (NA-NSAIDS) and methods of treating inflammation related conditions” (Institut Pasteur de Montevideo, priority 2017, dated 2021).

Assay: Adduct formation with beta mercaptoethanol followed spectrophotometrically
Details: 100 mM phosphate buffer pH 7.4; PARANA 30 μM/BME 30 μM; IBUNA 50 μM/BME 250 μM; FluFENA 12.5 μM/BME 125 μM; BANA 10 μM/BME 30 μM; PheNA 50 μM/BME 500 μM
For `O=C(O)c1ccc(/C=C/[N+](=O)[O-])cc1` [BANA, (E)-4-(2-nitrovinyl)benzoic acid], the “nitroalkene NSAID adduction with BME (absorbance change)” value was “absorbance increase”. In the case of `O=C(O)c1cc(/C=C/[N+](=O)[O-])ccc1Nc1cccc(C(F)(F)F)c1` [FluFENA, (E)-5-(2-nitrovinyl)-2-((3-(trifluoromethyl)phenyl)amino)benzoic acid], the “nitroalkene NSAID adduction with BME (absorbance change)” value is reported as “absorbance increase”. With `CC(C)Cc1ccc(C(C)C(=O)O)cc1/C=C/[N+](=O)[O-]` (centres unmarked) [IBUNA, (E)-2-(4-isobutyl-3-(2-nitrovinyl)phenyl)propanoic acid] the “nitroalkene NSAID adduction with BME (absorbance change)” value was “absorbance increase”. For `CC(=O)Nc1ccc(O)c(/C=C/[N+](=O)[O-])c1` [PARANA, (E)-N-(4-hydroxy-3-(2-nitrovinyl)phenyl)acetamide], the “nitroalkene NSAID adduction with BME (absorbance change)” value was “absorbance increase”. For `O=[N+]([O-])/C=C/c1ccc(O)cc1` [PheNA, (E)-4-(2-nitrovinyl)phenol], the “nitroalkene NSAID adduction with BME (absorbance change)” value was “absorbance increase”.
